Tested on: breast cancer hepatic metastatic cells
Test: [18F]PSMA-1007 micro PET/CT imaging in 4T1-tumor mice
Format: in vivo
Conditions: 200-300 uCi (0.2 ml) tail vein

## O=C(O)CC[C@H](NC(=O)N[C@@H](CCCCNC(=O)[C@H](Cc1ccc2ccccc2c1)NC(=O)c1ccc(CNC(=O)[C@H](CCC(=O)O)NC(=O)[C@H](CCC(=O)O)NC(=O)c2ccc([18F])nc2)cc1)C(=O)O)C(=O)O [18F-PSMA-1007]
  uptake by breast cancer hepatic metastatic cells in micro PET/CT image: specific and could be absorbed by breast cancer hepatic metastatic cells
  uptake by primary breast cancer tumors and lung/bone metastatic tumor cells in micro PET/CT image: not by the primary breast cancer tumors and lung/bone metastatic tumor cells
